Experimental data: PubChem BioAssay AID1259405 (NCATS, 2018)
In all, the deposit lists about 50,000 reagents; this is a random part of them. About 4,000 of all reagents (8%) were called active. 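Mouse siRNA library applied to hamster cells; one well for each siRNA.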 Entries without a mark were called inactive. Reagents against one gene are numbered here. No sequences are given here.

- Screen: 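Mouse-designed siRNAs used to find CHO productivity engineering targets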 (primary screen)
- System: Chinese hamster CHO-K1 ovary cells with stable secreted eGFP expression
- Reagents: single siRNA against mouse genes, 0.8 pmol siRNA per well (2 µl of 400 nM stock)
- Time to read-out: 3 days
- Measured: 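Percent of the per-plate non-targeting control median for intracellular GFP per well by laser scanning cytometry and for cell viability by ATP luminescence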
- Scale: GFP, % of control: higher = more GFP per well, higher productivity; viability (ATP), % of control: higher = more viable cells (more ATP)
- Rule for the call: 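a knock-down is called active if GFP reaches 120% or more of non-targeting control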

target gene	reagent	GFP, % of control	viability (ATP), % of control
Naxe (NAD(P)HX epimerase)	1	42.6	44
Naxe (NAD(P)HX epimerase)	2	51.5	70.3
Naxe (NAD(P)HX epimerase)	3	61.7	33.4
Mst1 (macrophage stimulating 1 (hepatocyte growth factor-like))	1	44.4	68.8
Mst1 (macrophage stimulating 1 (hepatocyte growth factor-like))	2	78.2	72
Mst1 (macrophage stimulating 1 (hepatocyte growth factor-like))	3	54.5	58.4
Pcdhb16 (protocadherin beta 16)	1	96.7	104
Pcdhb16 (protocadherin beta 16)	2	126 (active)	95.5
Ercc6l	1	56.3	56.7
Ercc6l	2	66.5	75
Ercc6l	3	39.8	35.7
Tmem65 (transmembrane protein 65)	1	44.1	60.9
Tmem65 (transmembrane protein 65)	2	51.5	67.6
Tmem65 (transmembrane protein 65)	3	80.5	99.5
Sap18 (Sin3A-associated polypeptide 18)	1	97.7	96.2
Sap18 (Sin3A-associated polypeptide 18)	2	77.3	86.4
Ptprs (protein tyrosine phosphatase receptor type S)	1	76.1	70.2
Ptprs (protein tyrosine phosphatase receptor type S)	2	73.2	76.8
Ptprs (protein tyrosine phosphatase receptor type S)	3	80.5	79.4
Snrpd1 (small nuclear ribonucleoprotein D1)	1	120 (active)	115
Snrpd1 (small nuclear ribonucleoprotein D1)	2	60.9	48
Cd72 (CD72 antigen)	1	65	71.7
Cd72 (CD72 antigen)	2	65.1	78.5
Cd72 (CD72 antigen)	3	51.4	101
Hap1 (huntingtin-associated protein 1)	1	72.9	61.9
Hap1 (huntingtin-associated protein 1)	2	105	62.8
Hap1 (huntingtin-associated protein 1)	3	76.5	63
Cd27 (CD27 antigen)	1	72.1	120
Cd27 (CD27 antigen)	2	36.6	50.1
Cd27 (CD27 antigen)	3	74.2	64.6
Plac1 (placental specific protein 1)	1	83.8	66.8
Plac1 (placental specific protein 1)	2	58.9	84.5
Plac1 (placental specific protein 1)	3	62	72.4
Zfp935 (zinc finger protein 935)	1	68.9	88.5
Zfp935 (zinc finger protein 935)	2	68.2	82
Zfp935 (zinc finger protein 935)	3	87.8	101
Ttc17 (tetratricopeptide repeat domain 17)	1	41.9	50
Ttc17 (tetratricopeptide repeat domain 17)	2	106	123
Ttc17 (tetratricopeptide repeat domain 17)	3	106	97
Eln (elastin)	1	119	113
Eln (elastin)	2	62.8	124
Ddx49 (DEAD box helicase 49)	1	87.9	89.7
Ddx49 (DEAD box helicase 49)	2	94.1	114
Ddx49 (DEAD box helicase 49)	3	71.2	99.4
Ogg1 (8-oxoguanine DNA-glycosylase 1)	1	104	110
Ogg1 (8-oxoguanine DNA-glycosylase 1)	2	51.4	76.4
Ogg1 (8-oxoguanine DNA-glycosylase 1)	3	80.3	83.9
Zfp786 (zinc finger protein 786)	1	190 (active)	117
Zfp786 (zinc finger protein 786)	2	39.6	64.5
Zfp786 (zinc finger protein 786)	3	117	101

Entries above marked active:
target gene	reagent	GFP, % of control	viability (ATP), % of control
Pcdhb16 (protocadherin beta 16)	2	126 (active)	95.5
Snrpd1 (small nuclear ribonucleoprotein D1)	1	120 (active)	115
Zfp786 (zinc finger protein 786)	1	190 (active)	117

Continued.
target gene	reagent	GFP, % of control	viability (ATP), % of control
Fgfr1op2 (FGFR1 oncogene partner 2)	1	66.5	69.7
Fgfr1op2 (FGFR1 oncogene partner 2)	2	72.4	56
Fgfr1op2 (FGFR1 oncogene partner 2)	3	72.9	78
Or5d20 (olfactory receptor family 5 subfamily D member 20)	1	117	125
Or5d20 (olfactory receptor family 5 subfamily D member 20)	2	70.3	89.1
Or5d20 (olfactory receptor family 5 subfamily D member 20)	3	58.9	61.2
Vwc2l (von Willebrand factor C domain-containing protein 2-like)	1	55.3	37.8
Vwc2l (von Willebrand factor C domain-containing protein 2-like)	2	55.8	68.6
Vwc2l (von Willebrand factor C domain-containing protein 2-like)	3	50.1	81.8
Tardbp (TAR DNA binding protein)	1	61.2	67.9
Tardbp (TAR DNA binding protein)	2	34	44.5
Tardbp (TAR DNA binding protein)	3	72.1	78.2
Kdm2a (lysine (K)-specific demethylase 2A)	1	47.9	65.5
Kdm2a (lysine (K)-specific demethylase 2A)	2	101	77.2
Kdm2a (lysine (K)-specific demethylase 2A)	3	109	94.7
Mamstr	1	57.7	58.1
Mamstr	2	82.9	77
Mamstr	3	132 (active)	119
Trmt1 (tRNA methyltransferase 1)	1	57.2	60.8
Trmt1 (tRNA methyltransferase 1)	2	110	69
Trmt1 (tRNA methyltransferase 1)	3	62.6	75.9
4931414P19Rik (RIKEN cDNA 4931414P19 gene)	1	120 (active)	50.7
4931414P19Rik (RIKEN cDNA 4931414P19 gene)	2	58.8	60.5
4931414P19Rik (RIKEN cDNA 4931414P19 gene)	3	62.9	65
Pah (phenylalanine hydroxylase)	1	73.5	89.1
Pah (phenylalanine hydroxylase)	2	114	109
Pah (phenylalanine hydroxylase)	3	88	76.8
Gfra4	1	168 (active)	90.2
Gfra4	2	82.9	61.5
Dner (delta/notch-like EGF repeat containing)	1	106	97.5
Dner (delta/notch-like EGF repeat containing)	2	69.1	67.4
Dner (delta/notch-like EGF repeat containing)	3	80	74.8
Cyp2c40 (cytochrome P450, family 2, subfamily c, polypeptide 40)	1	60.5	53.5
Cyp2c40 (cytochrome P450, family 2, subfamily c, polypeptide 40)	2	57	43.6
Cyp2c40 (cytochrome P450, family 2, subfamily c, polypeptide 40)	3	67.3	59.7
